Data reported in article doi:10.1101/431023.
Like-named read-outs stand apart in the source and are kept apart here. No constants are given. Whether binding was seen depends on the method and setting. Binding seen in cells or lysates may run through a third protein. Here binding means that the protein was enriched with, or labelled near, the bait; the list need not be complete. Sequences can lack the tags named with a protein.

Sequences of proteins named here, by UniProt entry; tags and fusion partners are left off.
UniProt Q8BX22: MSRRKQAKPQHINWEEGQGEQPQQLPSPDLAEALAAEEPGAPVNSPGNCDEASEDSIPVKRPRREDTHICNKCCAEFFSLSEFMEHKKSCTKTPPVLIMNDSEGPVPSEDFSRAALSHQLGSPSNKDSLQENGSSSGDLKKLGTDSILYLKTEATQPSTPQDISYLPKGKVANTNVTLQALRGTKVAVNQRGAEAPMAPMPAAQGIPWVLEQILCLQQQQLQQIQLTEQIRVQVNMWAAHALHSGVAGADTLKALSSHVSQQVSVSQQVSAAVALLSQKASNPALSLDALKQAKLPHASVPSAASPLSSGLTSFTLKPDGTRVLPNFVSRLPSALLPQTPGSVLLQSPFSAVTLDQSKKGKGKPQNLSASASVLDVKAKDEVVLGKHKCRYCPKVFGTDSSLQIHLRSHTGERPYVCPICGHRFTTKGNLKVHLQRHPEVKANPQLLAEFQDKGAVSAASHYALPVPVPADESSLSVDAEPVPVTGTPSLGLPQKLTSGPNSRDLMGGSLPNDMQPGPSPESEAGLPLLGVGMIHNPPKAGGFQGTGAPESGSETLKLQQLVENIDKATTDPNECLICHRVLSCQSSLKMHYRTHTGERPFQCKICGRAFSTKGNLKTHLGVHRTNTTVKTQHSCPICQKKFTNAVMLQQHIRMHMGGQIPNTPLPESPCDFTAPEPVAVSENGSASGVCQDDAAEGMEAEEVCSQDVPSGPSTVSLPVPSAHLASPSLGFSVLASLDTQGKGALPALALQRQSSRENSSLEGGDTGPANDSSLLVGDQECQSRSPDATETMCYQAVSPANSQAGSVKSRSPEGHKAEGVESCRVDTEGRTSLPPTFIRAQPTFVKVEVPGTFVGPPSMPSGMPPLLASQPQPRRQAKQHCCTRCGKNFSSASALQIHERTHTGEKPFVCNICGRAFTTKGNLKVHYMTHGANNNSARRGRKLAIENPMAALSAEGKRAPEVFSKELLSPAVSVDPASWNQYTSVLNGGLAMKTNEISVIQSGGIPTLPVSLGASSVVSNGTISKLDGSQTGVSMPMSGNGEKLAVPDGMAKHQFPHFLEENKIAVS
UniProt Q62504: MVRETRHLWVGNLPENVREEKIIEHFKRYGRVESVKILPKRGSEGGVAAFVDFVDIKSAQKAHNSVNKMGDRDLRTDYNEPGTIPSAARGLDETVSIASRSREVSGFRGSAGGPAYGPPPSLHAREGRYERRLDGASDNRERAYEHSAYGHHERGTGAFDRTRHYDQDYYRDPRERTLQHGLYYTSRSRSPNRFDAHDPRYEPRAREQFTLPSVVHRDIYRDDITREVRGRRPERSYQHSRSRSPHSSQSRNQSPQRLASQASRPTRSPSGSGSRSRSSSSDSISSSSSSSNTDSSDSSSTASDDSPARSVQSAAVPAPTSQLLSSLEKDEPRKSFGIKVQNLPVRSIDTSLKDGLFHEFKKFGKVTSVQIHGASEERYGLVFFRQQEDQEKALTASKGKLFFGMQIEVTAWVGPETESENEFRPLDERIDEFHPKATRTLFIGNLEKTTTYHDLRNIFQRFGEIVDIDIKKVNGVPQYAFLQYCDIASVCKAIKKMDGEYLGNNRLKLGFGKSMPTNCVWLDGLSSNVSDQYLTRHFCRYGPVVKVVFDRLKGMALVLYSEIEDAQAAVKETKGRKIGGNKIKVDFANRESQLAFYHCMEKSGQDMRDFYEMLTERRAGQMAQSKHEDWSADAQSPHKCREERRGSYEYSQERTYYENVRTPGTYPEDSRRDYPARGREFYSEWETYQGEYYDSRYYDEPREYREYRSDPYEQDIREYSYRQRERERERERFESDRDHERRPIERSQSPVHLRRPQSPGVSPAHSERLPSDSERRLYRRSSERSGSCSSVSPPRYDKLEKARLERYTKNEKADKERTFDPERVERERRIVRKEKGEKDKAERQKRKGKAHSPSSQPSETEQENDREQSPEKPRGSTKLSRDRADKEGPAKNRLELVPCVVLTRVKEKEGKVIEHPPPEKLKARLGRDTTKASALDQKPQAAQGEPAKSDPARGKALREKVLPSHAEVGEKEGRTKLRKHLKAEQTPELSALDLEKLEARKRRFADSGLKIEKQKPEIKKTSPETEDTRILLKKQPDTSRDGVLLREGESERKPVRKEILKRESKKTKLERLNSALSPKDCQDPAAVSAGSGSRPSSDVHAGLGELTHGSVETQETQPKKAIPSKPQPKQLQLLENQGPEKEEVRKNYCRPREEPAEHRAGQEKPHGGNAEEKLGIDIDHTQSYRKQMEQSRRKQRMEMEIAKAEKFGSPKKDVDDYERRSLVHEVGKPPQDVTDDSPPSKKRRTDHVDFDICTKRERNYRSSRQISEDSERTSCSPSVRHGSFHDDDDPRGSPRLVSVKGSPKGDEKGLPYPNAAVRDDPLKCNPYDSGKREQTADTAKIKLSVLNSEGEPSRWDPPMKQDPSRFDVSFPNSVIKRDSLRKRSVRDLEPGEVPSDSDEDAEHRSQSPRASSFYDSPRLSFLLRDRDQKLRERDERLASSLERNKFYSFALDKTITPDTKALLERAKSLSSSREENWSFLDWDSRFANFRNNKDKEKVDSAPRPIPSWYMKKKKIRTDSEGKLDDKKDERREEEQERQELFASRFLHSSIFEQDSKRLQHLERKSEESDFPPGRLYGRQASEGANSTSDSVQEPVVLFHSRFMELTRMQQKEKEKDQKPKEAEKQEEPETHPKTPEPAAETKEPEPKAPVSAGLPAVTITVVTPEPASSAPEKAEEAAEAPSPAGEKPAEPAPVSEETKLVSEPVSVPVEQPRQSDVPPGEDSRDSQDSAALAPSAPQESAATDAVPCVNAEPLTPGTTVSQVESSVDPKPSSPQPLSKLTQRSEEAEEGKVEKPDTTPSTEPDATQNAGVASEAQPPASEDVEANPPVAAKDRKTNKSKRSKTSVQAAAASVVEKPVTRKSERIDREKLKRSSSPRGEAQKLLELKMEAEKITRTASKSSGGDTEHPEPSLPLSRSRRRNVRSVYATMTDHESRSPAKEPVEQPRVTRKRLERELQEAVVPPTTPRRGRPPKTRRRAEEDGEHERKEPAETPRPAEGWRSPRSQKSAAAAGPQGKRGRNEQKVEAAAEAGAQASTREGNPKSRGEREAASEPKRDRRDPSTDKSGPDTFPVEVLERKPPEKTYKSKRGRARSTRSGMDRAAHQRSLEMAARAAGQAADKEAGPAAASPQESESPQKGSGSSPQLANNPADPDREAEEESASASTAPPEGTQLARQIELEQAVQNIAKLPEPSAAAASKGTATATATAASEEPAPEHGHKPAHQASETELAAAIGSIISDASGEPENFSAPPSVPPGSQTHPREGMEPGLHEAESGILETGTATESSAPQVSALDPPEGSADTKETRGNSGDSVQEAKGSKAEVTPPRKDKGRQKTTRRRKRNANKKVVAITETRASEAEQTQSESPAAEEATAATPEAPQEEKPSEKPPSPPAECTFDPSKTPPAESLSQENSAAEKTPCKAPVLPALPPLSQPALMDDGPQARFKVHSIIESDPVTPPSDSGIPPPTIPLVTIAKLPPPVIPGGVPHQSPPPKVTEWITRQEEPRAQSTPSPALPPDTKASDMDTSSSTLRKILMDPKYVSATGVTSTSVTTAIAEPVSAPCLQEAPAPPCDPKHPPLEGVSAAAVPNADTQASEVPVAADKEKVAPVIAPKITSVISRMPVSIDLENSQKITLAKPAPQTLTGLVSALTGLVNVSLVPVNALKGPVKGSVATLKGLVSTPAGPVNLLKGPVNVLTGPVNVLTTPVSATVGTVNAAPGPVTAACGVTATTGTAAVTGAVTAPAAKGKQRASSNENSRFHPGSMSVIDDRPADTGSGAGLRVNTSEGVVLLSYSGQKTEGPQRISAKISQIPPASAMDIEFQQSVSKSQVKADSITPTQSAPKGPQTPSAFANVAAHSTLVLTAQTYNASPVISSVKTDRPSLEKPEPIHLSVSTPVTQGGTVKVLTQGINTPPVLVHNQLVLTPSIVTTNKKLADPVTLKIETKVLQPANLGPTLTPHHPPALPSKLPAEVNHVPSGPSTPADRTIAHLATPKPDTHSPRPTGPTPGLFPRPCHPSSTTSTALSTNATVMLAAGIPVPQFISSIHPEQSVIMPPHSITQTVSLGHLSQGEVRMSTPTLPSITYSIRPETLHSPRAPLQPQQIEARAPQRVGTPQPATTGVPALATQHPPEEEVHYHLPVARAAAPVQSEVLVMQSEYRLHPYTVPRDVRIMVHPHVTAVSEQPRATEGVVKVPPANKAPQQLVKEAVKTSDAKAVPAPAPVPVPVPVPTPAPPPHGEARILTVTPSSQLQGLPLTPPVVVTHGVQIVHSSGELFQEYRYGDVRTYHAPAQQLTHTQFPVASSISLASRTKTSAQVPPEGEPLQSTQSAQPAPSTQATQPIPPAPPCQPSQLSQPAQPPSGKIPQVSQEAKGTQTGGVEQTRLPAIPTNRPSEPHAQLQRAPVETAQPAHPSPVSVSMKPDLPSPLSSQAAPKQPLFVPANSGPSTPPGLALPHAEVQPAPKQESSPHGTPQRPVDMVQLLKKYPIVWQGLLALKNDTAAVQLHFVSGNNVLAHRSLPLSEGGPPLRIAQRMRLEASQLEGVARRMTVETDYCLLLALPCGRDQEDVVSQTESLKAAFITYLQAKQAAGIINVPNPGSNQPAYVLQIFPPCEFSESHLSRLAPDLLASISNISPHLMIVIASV
UniProt Q61686: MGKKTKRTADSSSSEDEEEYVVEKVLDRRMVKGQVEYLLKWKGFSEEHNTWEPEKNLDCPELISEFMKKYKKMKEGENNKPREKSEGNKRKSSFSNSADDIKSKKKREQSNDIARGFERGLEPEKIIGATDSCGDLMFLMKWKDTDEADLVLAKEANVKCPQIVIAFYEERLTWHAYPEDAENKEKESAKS
UniProt P10630: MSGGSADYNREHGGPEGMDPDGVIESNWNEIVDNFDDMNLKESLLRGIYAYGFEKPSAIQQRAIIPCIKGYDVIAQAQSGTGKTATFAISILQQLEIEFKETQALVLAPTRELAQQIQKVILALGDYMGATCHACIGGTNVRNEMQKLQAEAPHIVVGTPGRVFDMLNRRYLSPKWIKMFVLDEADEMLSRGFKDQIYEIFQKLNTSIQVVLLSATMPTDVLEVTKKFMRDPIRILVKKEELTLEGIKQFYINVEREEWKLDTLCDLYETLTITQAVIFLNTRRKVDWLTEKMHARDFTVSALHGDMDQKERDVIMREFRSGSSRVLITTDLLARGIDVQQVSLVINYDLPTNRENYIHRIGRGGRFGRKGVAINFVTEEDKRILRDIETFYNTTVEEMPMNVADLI
UniProt Q8VHR5: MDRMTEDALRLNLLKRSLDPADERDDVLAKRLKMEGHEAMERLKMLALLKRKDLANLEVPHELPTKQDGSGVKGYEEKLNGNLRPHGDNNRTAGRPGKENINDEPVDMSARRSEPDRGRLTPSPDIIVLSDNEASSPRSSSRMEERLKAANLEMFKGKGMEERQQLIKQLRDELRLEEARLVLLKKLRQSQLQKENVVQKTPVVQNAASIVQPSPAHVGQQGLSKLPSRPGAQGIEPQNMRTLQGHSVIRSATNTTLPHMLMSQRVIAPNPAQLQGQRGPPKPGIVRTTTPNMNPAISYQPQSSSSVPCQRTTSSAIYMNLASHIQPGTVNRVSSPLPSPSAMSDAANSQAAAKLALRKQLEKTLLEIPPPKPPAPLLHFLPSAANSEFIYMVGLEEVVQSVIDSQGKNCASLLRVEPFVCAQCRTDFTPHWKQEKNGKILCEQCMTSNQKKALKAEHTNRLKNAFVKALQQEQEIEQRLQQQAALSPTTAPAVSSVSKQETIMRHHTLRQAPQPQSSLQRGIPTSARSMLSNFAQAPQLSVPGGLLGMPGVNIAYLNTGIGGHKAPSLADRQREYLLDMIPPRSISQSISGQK
UniProt Q61466: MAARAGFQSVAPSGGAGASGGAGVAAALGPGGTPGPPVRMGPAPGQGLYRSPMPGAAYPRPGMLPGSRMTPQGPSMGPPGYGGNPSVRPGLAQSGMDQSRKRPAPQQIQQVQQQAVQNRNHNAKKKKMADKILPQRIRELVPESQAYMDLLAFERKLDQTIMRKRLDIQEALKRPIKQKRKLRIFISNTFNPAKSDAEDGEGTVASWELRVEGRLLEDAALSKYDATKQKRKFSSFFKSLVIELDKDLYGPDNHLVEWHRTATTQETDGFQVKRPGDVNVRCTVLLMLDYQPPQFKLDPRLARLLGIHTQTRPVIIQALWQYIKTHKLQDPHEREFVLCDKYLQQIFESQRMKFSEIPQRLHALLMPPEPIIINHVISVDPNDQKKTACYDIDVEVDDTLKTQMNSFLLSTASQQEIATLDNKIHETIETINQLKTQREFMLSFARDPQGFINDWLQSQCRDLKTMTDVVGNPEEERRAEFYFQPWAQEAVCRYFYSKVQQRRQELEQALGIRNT

T1: dox-inducible 3xFLAG-BirA*-tagged TCF7L1 in the Rosa26 locus (UniProt Q9Z1J1)
T1 sequence: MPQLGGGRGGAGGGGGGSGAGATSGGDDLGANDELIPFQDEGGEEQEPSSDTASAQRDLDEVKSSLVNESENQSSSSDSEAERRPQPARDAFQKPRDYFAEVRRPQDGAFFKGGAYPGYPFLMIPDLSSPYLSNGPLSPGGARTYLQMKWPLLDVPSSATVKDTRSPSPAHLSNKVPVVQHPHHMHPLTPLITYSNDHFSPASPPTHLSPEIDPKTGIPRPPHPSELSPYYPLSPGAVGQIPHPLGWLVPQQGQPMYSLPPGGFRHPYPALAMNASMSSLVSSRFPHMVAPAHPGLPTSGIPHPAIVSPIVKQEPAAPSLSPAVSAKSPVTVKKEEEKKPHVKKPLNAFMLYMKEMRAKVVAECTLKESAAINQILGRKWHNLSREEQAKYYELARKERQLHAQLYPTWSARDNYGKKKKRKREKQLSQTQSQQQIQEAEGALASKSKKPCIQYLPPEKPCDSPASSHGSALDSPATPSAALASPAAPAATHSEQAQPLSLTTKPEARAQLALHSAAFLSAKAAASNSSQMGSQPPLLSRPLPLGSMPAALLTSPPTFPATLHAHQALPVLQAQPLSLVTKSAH

T2: 3xFLAG-BirA*-tagged TCF7L1 at the endogenous TCF7L1 locus (mouse (endogenous in mESCs)) (UniProt Q9Z1J1)
T2 sequence: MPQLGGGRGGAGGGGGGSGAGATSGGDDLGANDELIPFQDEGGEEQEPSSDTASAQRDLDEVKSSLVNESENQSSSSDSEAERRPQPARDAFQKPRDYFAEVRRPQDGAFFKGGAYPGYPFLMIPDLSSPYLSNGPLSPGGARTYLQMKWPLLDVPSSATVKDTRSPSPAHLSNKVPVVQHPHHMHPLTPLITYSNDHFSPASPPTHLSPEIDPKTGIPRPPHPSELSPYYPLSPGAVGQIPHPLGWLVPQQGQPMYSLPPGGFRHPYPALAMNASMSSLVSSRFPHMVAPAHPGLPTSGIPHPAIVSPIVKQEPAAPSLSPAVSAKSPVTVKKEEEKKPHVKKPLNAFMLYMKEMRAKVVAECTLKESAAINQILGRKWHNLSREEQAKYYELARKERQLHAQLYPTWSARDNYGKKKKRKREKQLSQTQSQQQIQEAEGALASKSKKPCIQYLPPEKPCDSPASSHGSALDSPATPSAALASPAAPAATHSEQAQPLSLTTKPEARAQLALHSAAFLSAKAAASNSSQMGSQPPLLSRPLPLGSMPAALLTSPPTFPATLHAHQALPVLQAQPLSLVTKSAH


Legend:
Assay in all cases: proximity labelling
[1] = target: T1, dox-inducible 3xFLAG-BirA*-tagged TCF7L1 in the Rosa26 locus
[2] = target: T2, 3xFLAG-BirA*-tagged TCF7L1 at the endogenous TCF7L1 locus (mouse (endogenous in mESCs))
[3] = target: T1, dox-inducible 3xFLAG-BirA*-tagged TCF7L1 in the Rosa26 locus; remark: listed apart in the source

binding [1]	binding [2]	binding [3]	Molecule
binds			AHDC1 (from UniProt Q6PAL7 1-1594)
	binds		DDX3Y (from UniProt Q62095 1-658)
	binds		RBBP5 (from UniProt Q8BX09 1-538)
binds	binds		SALL4 (from UniProt Q8BX22 1-1067)
binds	binds		SMARCC1 (from UniProt P97496 1-1104)
binds	binds		SMARCE1 (from UniProt O54941 1-411)
binds	binds		SPEN (from UniProt Q62504 1-3644)
binds	binds		TLE3 (from UniProt Q08122 1-772)
binds	binds		β-catenin (from UniProt Q02248 1-781)
		binds	TRIM24 (protein, UniProt Q64127 1-1051) MEVAVEKAAAAAAPAGGPAAAAPSGENEAESRQGPDSESGGEASRLNLLDTCAVCHQNIQSRVPKLLPCLHSFCQRCLPAPQRYLMLTAPALGSAETPPPAPAPAPAPGSPAGGPSPFATQVGVIRCPVCSQECAERHIIDNFFVKDTTEVPSSTVEKSNQVCTSCEDNAEANGFCVECVEWLCKTCIRAHQRVKFTKDHTVRQKEEVSPEAVGVTSQRPVFCPFHKKEQLKLYCETCDKLTCRDCQLLEHKEHRYQFIEEAFQNQKVIIDTLITKLMEKTKYIKYTGNQIQNRIIEINQNQKQVEQDIKVAIFTLMVEINKKGKALLHQLESLAKDHRMKLMQQQQEVAGLSKQLEHVMHFSKWAVSSGSSTALLYSKRLITYRLRHLLRARCDASPVTNTTIQFHCDPSFWAQNIINLGSLVIEDKESQPQMPKQNPVVEQSSQPPGGLPSNQLSKFPTQISLAQLRLQHIQQQVMAQRQQVQRRPAPVGLPNPRMQGPIQQPSISHQHPPPRLINFQNHSPKPNGPVLPPYPQQLRYSPSQNVPRQTTIKPNPLQMAFLAQQAIKQWQISSVQAPPTTASSSSSTPSSPTITSAAGYDGKAFSSPMIDLSAPVGGSYNLPSLPDIDCSSTIMLDNIARKDTGVDHAQPRPPSNRTVQSPNSSVPSPGLAGPVTMTSVHPPIRSPSASSVGSRGSSGSSSKPAGADSTHKVPVVMLEPIRIKQENSGPPENYDFPVVIVKQESDEESRPQNTNYPRSILTSLLLNSSQSSASEETVLRSDAPDSTGDQPGLHQENSSNGKSEWSDASQKSPVHVGETRKEDDPNEDWCAVCQNGGELLCCEKCPKVFHLTCHVPTLTNFPSGEWICTFCRDLSKPEVDYDCDVPSHHSEKRKSEGLTKLTPIDKRKCERLLLFLYCHEMSLAFQDPVPLTVPDYYKIIKNPMDLSTIKKRLQEDYCMYTKPEDFVADFRLIFQNCAEFNEPDSEVANAGIKLESYFEELLKNLYPEKRFPKVEFRHEAEDCKFSDDSDDDFVQPRKKRLKSTEDRQLLK
		binds	OGT (protein, UniProt Q8CGY8 1-1046) MASSVGNVADSTEPTKRMLSFQGLAELAHREYQAGDFEAAERHCMQLWRQEPDNTGVLLLLSSIHFQCRRLDRSAHFSTLAIKQNPLLAEAYSNLGNVYKERGQLQEAIEHYRHALRLKPDFIDGYINLAAALVAAGDMEGAVQAYVSALQYNPDLYCVRSDLGNLLKALGRLEEAKACYLKAIETQPNFAVAWSNLGCVFNAQGEIWLAIHHFEKAVTLDPNFLDAYINLGNVLKEARIFDRAVAAYLRALSLSPNHAVVHGNLACVYYEQGLIDLAIDTYRRAIELQPHFPDAYCNLANALKEKGSVAEAEDCYNTALRLCPTHADSLNNLANIKREQGNIEEAVRLYRKALEVFPEFAAAHSNLASVLQQQGKLQEALMHYKEAIRISPTFADAYSNMGNTLKEMQDVQGALQCYTRAIQINPAFADAHSNLASIHKDSGNIPEAIASYRTALKLKPDFPDAYCNLAHCLQIVCDWTDYDERMKKLVSIVAEQLEKNRLPSVHPHHSMLYPLSHGFRKAIAERHGNLCLDKINVLHKPPYEHPKDLKLSDGRLRVGYVSSDFGNHPTSHLMQSIPGMHNPDKFEVFCYALSPDDGTNFRVKVMAEANHFIDLSQIPCNGKAADRIHQDGIHILVNMNGYTKGARNELFALRPAPIQAMWLGYPGTSGALFMDYIITDQETSPAEVAEQYSEKLAYMPHTFFIGDHANMFPHLKKKAVIDFKSNGHIYDNRIVLNGIDLKAFLDSLPDVKIVKMKCPDGGDNPDSSNTALNMPVIPMNTIAEAVIEMINRGQIQITINGFSISNGLATTQINNKAATGEEVPRTIIVTTRSQYGLPEDAIVYCNFNQLYKIDPSTLQMWANILKRVPNSVLWLLRFPAVGEPNIQQYAQNMGLPQNRIIFSPVAPKEEHVRRGQLADVCLDTPLCNGHTTGMDVLWAGTPMVTMPGETLASRVAASQLTCLGCLELIAKSRQEYEDIAVKLGTDLEYLKKIRGKVWKQRISSPLFNTKQYTMELERLYLQMWEHYAAGNKPDHMIKPVEVTESA
		binds	BCL9L (protein, UniProt Q67FY2 1-1494) MRILANKTRLPHPRRREAPGSPPLSPRGHCPPAPAKPMHPENKLTNHGKTGNGGAQSQHQNVNQGPTCNLGSKGVGAGSHGAKANQISPSNSSLKNPQAGVSPFSSLKGKVKRERSVSVDSGEQREAGTPSLDSEAKEVAPRSKRRCVLERKQPYSGDEWCSGPDSEEDDKPIAAAHNCNVADPAMVTPQLGPGQTAQLPLSESSAPGPQHGPQPGLRPDVPGGGGGGVPGKPPSQFVYVFTTHLANTAAEAVLQGRAESILAYHQQNVPRAKLDQAPKVPPTPEPLPLNTPSAGTPQSQPPPLPPPPPAPGSAPPALPPEGPPEDTSQDLAPNSVGAASTGGGTGGTHPNTPTAATANNPLPPGGDPGSAPGSALLGEATPTGNGQRNLVGSEGLSKEQLEHRERSLQTLRDIERLLLRSGETEPFLKGPPGGAGEGGPPAQAPSAAQPPPSAPPGGLKKYEEPLQSMISQTQSLGGPPLEHEVPGHPQGGDMGQQMNMMMQRLGQDSLTPEQVAWRKLQEEYYEEKRRKEEQIGLHGGRPLQDMVGMGGMMGRGPPPPYHSKPGDQWPPGMGAQLRGPMDVQDPMQLRPGPPFPGPRFPGNQMQRVPGFGGMQSMPMEVPMNAMQRPVRPGMAWNEDLPPIGGPSNFAQNAVPYPGGQGEAERFMTPRVREELLRHQLLEKRSMGMQRPLGMAGSGMGQSMEMERMIQAHRQMDPAMFPGQMTGGDGLAGTPMGIEFGGGRGLLSPPMGQSGLREVDPPMGPGNLNMNMNVNMNMNMNLNVQMTPQQQMLMSQKMRGPGDMMGPQGLSPEEMARVRAQNSSGMMGGPQKMLMPSQFPNQGQQGFSGGQGPYQAMPQDMGNTPDMFSPDQSSVPMGTVGTARLSHMPLPPASNPPGSVHLASNRGLGRRPSDLTISINQMGSPGMGHLKSPTLSQVHSPLVTSPSANLKSPQTPSQMVPLPSANPPGPLKSPQVLSSSLGVRSPTGSPSRLKSPSMAVPSPGWVASPKTAMPSPGVSQNKQPPLSINSSSTLGNVEQGALPPSAPRNSSSAPPANPSSGLMNPSLPFTSSPDPTPSQNPLSLMMSQMSKYAMPSSTPLYHNAIKTIATSDDELLPDRPLLPPPPPPQGSGPGISNNQPNQMHMNPAAAQSPMGMNLPGQQPLSHEPPPTMLPSPTPLGSNIPLHPNAQGTGGSSQNSMMMAPGGPDSLNAPCGPVPSSSQMMSFPPRLQQPHGAMAPTGAGGPGLQQHYPSGMALPPEDLPTQPPGPIPPQQHLMGKGMTGRMGDAYPPGVLPGVASVLNDPELSEVIRPTPTGIPEFDLSRIIPSEKPSSTLQYFPKSENQPPKAQPPNLHLMNLQNMMAEQTPSRPPNLPGQQGVQRGLSMSMCHPGQMSLLGRTGVPPQQGMVPHGLHQGVMSPPQGLMTQQNFMLMKQRGVGGEVYTQPPHMLSPQGSLMGPPPQQNLMVSHPLRQRSVSLDSQMGYLPTPGSMANLPF

Further lines, the molecule ahead of its results:

Molecule	binding [1]	binding [2]	binding [3]
APC (from UniProt Q61315 1-2845)	binds		
ARID1A (from UniProt A2BH40 1-2283)	binds	binds	
ARID1B (from UniProt E9Q4N7 1-2306)	binds	binds	
BCL-6 Corepressor (BCOR) (from UniProt Q8CGN4 1-1759)	binds	binds	
CBP (from UniProt P45481 1-2441)	binds		
CBX5 (from UniProt Q61686 1-191)		binds	
DPF2 (from UniProt Q61103 1-391)	binds	binds	
EIF4A2 (from UniProt P10630 1-407)		binds	
EP400 (from UniProt Q8CHI8 1-3072)	binds		
GATAD2B (from UniProt Q8VHR5 1-594)		binds	
MDN1 (from UniProt A2ANY6 1-5589)		binds	
NCOR1 (from UniProt Q60974 1-2453)	binds	binds	
PRR12 (from UniProt E9PYL2 1-2035)	binds	binds	
SMARCD1 (from UniProt Q61466 1-515)	binds	binds	
SMARCD2 (from UniProt Q99JR8 1-531)	binds		
TET1 (from UniProt Q3URK3 1-2039)	binds	binds	
TLE4 (from UniProt Q62441 1-773)	binds	binds	
